Data as given in PubChem BioAssay AID1224830 (NIAID, 2016).
Screen: 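Regulators of TLR4 signalling towards TNF-alpha in macrophage-like cells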 (primary screen). Cell system: human THP-1 monocytic leukaemia cells, TNF dual-luciferase reporter clone, PMA-differentiated to macrophage-like cells. Knock-down reagent: siRNA pool against human genes, 50 nM. Timing: LPS for 4 h, given about 3 days after siRNA transfection. Conditions: bacterial LPS (TLR4 ligand), 10 ng/ml. Measured: 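Ratio of firefly to renilla light, scaled to the plate median and expressed as a robust z-score per replicate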. Direction: TNF reporter robust z-score: higher = stronger TNF reporter response to LPS. Call rule: 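Each well counts as active if its z-score is over 2.8 or under -1.5; controls are left without a call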.
Shown is a random part of about 18,000 reagents. Over the whole deposit, about 2,900 (16%) are marked active. 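Calls are made per well; low scores hint the gene aids the LPS response, high scores that it dampens it.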 Repeated entries: four replicate wells of each siRNA pool.

no.	Gene	PubChem SID	TNF reporter robust z-score	call
1	M1AP	SID315461882	-1.05	inactive
2	M1AP	SID315461882	-1.37	inactive
3	M1AP	SID315461882	-1.26	inactive
4	M1AP	SID315461882	-1.12	inactive
5	ABCF3	SID315457595	1.54	inactive
6	ABCF3	SID315457595	1.96	inactive
7	ABCF3	SID315457595	0.74	inactive
8	ABCF3	SID315457595	0.31	inactive
9	ZDHHC24	SID315463455	0.1	inactive
10	ZDHHC24	SID315463455	2.19	inactive
11	ZDHHC24	SID315463455	0.15	inactive
12	ZDHHC24	SID315463455	-0.12	inactive
13	LSM1	SID315456002	-0.74	inactive
14	LSM1	SID315456002	-0.61	inactive
15	LSM1	SID315456002	-1.53	active
16	LSM1	SID315456002	-0.34	inactive
17	TACR3	SID315451735	-1.63	active
18	TACR3	SID315451735	-1.08	inactive
19	TACR3	SID315451735	-0.39	inactive
20	TACR3	SID315451735	-0.19	inactive
21	PNP	SID315450286	4.25	active
22	PNP	SID315450286	2.38	inactive
23	PNP	SID315450286	3.9	active
24	PNP	SID315450286	1.52	inactive
25	IRAK4	SID315456502	0.14	inactive
26	IRAK4	SID315456502	-0.61	inactive
27	IRAK4	SID315456502	0.08	inactive
28	IRAK4	SID315456502	1.05	inactive
29	CUL3	SID315452571	0.32	inactive
30	CUL3	SID315452571	0.84	inactive
31	CUL3	SID315452571	4.61	active
32	CUL3	SID315452571	2.93	active

Called active, among the entries above:
Gene	PubChem SID	TNF reporter robust z-score	call
LSM1	SID315456002	-1.53	active
TACR3	SID315451735	-1.63	active
PNP	SID315450286	4.25	active
PNP	SID315450286	3.9	active
CUL3	SID315452571	4.61	active
CUL3	SID315452571	2.93	active

Additional results follow:
no.	Gene	PubChem SID	TNF reporter robust z-score	call
33	CDK20	SID315455325	-0.98	inactive
34	CDK20	SID315455325	-1.02	inactive
35	CDK20	SID315455325	-1.38	inactive
36	CDK20	SID315455325	-0.95	inactive
37	DYNC2I2	SID315460762	-1.16	inactive
38	DYNC2I2	SID315460762	-0.02	inactive
39	DYNC2I2	SID315460762	-1.51	active
40	DYNC2I2	SID315460762	-0.37	inactive
41	GNG10	SID315448956	-1.65	active
42	GNG10	SID315448956	-1.43	inactive
43	GNG10	SID315448956	-1.03	inactive
44	GNG10	SID315448956	-0.54	inactive
45	DENND6A	SID315463085	-1.45	inactive
46	DENND6A	SID315463085	-0.86	inactive
47	DENND6A	SID315463085	-0.06	inactive
48	DENND6A	SID315463085	-0.26	inactive
